Publication doi:10.1101/2020.01.19.911149 (bioRxiv, 2020)
These are yes or no findings as the source states them, for the method shown. Some entries that bind do so weakly or less than the wild type. Where a sequence is shown, tags or fusion partners need not be part of it.

Amino acid sequences for entries named in this document (tags omitted).
UniProt P83916, whole entry: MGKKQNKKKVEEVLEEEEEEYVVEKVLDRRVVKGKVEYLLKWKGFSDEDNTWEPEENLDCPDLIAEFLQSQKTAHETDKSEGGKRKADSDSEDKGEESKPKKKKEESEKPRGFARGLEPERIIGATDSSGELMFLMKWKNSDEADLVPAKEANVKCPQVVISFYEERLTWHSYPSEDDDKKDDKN

Molecular target: T1, SUV39H1 with an N-terminal His6-MBP tag (UniProt O43463)
T1 sequence: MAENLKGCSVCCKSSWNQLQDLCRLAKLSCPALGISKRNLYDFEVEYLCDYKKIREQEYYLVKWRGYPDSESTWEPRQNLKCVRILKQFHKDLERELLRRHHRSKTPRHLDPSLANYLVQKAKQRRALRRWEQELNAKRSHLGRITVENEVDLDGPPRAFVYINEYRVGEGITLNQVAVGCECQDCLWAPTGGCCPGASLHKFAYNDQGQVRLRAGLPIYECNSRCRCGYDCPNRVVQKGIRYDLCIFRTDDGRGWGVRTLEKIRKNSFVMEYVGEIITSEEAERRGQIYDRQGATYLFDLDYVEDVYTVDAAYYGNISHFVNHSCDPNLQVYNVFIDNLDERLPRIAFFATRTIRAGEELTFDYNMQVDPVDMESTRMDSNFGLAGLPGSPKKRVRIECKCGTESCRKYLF
Test: co-purification

HP1β (from UniProt P83916 1-185)
binding: binds
